Test results from US20190330358A1.
These are yes or no findings as the source states them, for the method shown. Some binding calls cover weakened binding; strength is not graded here. Where a sequence is shown, tags or fusion partners need not be part of it.

Molecular target: T1, Glutathione S-transferase (GST)-tagged AITR (human) (UniProt Q9Y5U5)
T1 sequence (looked up): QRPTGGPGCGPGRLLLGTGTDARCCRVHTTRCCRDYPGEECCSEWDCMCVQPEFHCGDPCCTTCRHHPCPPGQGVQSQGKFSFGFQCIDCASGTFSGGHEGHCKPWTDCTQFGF
Test: SPR (Biacore T200), captured antibody, GST-AITR analyte

binding: binds
B1: H1F1.M69 (H1F1.H2.J1/H1F1.L3.J1) (antibody, V domains shown)
VH: QVQLVQSGAQVKMPGESLKVSCKASGYTFTDYGMGWVRQAPGQGLEWMGWISPYTGRTNSSDKFQGRVTMTRDTSTSTAYMELRSLRSEDTAVYYCARDGTYYDFWSGYFDNNAFDIWGQGTLVTVSS
VL: QSVVTQPPSVSGAPGQRVTISCSGSTSNIGNNYVSWYQQLPGTAPKLLIYDNYKRPSGVPDRFSGSKSGTSASLAITGLQTEDEADYYCGTWDSSLNAWVFGGGTKLTVL
